{"source": "patent EP2163246A1", "about": "“Taurine or taurine-like substances for the prevention of the irreversible visual effects of vigabatrin” (INSERM (Institut National de la Santé et de la Recherche …, priority 2008, dated 2010)", "conditions": "albino rats, VGB 40 mg daily i.p. 65 days, n=5, s.e.m.; for Blood concentrations for amino acids: Taurine: control 373,4 ± 46,7", "note": "Where “and” joins values, the source holds several entries; their conditions need not be identical. Identical values can stand only once. Like-named read-outs stand apart in the source and are kept apart here.", "data": [{"smiles": "C=CC(N)CCC(=O)O", "note": "(centres unmarked) [VGB, 4-amino-5-hexenoic acid]", "values": [{"measurement": "Blood concentrations for amino acids: Phenylalanine", "setting": "control 54,2 ± 6, 9", "value": "42,8 ± 1,0 µM"}, {"measurement": "Blood concentrations for amino acids: Citrulline", "setting": "control 54 ± 9,7", "value": "45,6 ± 4,2 µM"}, {"measurement": "Blood concentrations for amino acids: Methionine", "setting": "control 58 ± 4,7, * significant", "value": "45 ± 1,4 * µM"}, {"measurement": "Blood concentrations for amino acids: Tyrosine", "setting": "control 63,2 ± 6,8", "value": "51,6 ± 4,5 µM"}, {"measurement": "Blood concentrations for amino acids: Histidine", "setting": "control 75,8 ± 5,4", "value": "63,2 ± 2,9 µM"}, {"measurement": "Blood concentrations for amino acids: Ornithine", "setting": "control 78.6 ± 33.0", "value": "57.6 ± 10.6", "unit": "µM"}, {"measurement": "Blood concentrations for amino acids: Isoleucine", "setting": "control 79,8 ± 8,0", "value": "68,2 ± 4,5 µM"}, {"measurement": "Blood concentrations for amino acids: Arginine", "setting": "control 130 ± 39,0", "value": "111,8 ± 15,1 µM"}, {"measurement": "Blood concentrations for amino acids: Leucine", "setting": "control 152,6 ± 17,6", "value": "123,2 ± 11,5 µM"}, {"measurement": "Blood concentrations for amino acids: Proline", "setting": "control 155 ± 21,0", "value": "110,6 ± 20,1 µM"}, {"measurement": "Blood concentrations for amino acids: Valine", "setting": "control 167, 4 ± 14,8", "value": "146 ±8,9 µM"}, {"measurement": "Blood concentrations for amino acids: Glycine", "setting": "control 190,6 ± 30,1", "value": "142,8 ± 17,6 µM"}, {"measurement": "Blood concentrations for amino acids: Thréonine", "setting": "control 194,2 ± 30,8", "value": "130,6 ± 7,0 µM"}, {"measurement": "Blood concentrations for amino acids: Sérine", "setting": "control 203,8 ± 28,7", "value": "169,4 ± 16,1 µM"}, {"measurement": "Blood concentrations for amino acids: Acide glutamique", "setting": "control 217,4 ± 56,6, * significant", "value": "94.8±15.6 µM and 94,8 ± 15,6 * µM"}, {"measurement": "Blood concentrations for amino acids: Alanine", "setting": "control 303,8 ± 32,3", "value": "270,4 ± 29,5 µM"}, {"measurement": "Blood concentrations for amino acids: Lysine", "setting": "control 307,2 ± 23,8", "value": "260,4 ± 32,3 µM"}, {"measurement": "Blood concentrations for amino acids: Taurine", "setting": "* significant", "value": "122.2±26.6 µM and 122,2 ± 26,6 * µM"}, {"measurement": "Blood concentrations for amino acids: Taurine", "setting": "* significant, listed as vigabatrin", "value": 122.2, "unit": "µM"}, {"measurement": "Blood concentrations for amino acids: Glutamine", "setting": "control 375,6 ± 40,7", "value": "349 ± 13,4 µM"}]}]}
